Test results reported in the supplement of paper PMC8732350.
“And” between values parts separate entries of the source, which are not always exact repeats. Identical values can stand only once. Counter-ions that a name gives are not always drawn. ± gives the standard deviation of the averaged measurements. This is one part of the list. Most values lie within the scatter of the assay; repeated measurements hardly agree.

test system: A549; assay: surface PD-L1 immunofluorescence intensity relative to IFN-gamma-only control (ratio); higher = more PD-L1 expression; conditions: 10 µM; exposure time 24 h; IFN-gamma 100 ng/mL

Structure (SMILES) | surface PD-L1 immunofluorescence intensity
CCOC(=O)C1=C[C@@H](OC(CC)CC)[C@H](NC(C)=O)[C@@H](N)C1 [Oseltamivir phosphate (Tamiflu)] | 0.834
C[C@]12CCC(=O)C=C1CC[C@@H]1[C@@H]2[C@@H](O)C[C@@]2(C)[C@H]1CC[C@]2(O)C(=O)CO [Hydrocortisone base] | 0.795
C[C@]12CCC(=O)C=C1CC[C@@H]1[C@@H]2[C@@H](O)C[C@@]2(C)[C@H]1CC[C@]2(O)C(=O)CO [Hydrocortisone (Cortisol)] | 0.814
Cc1onc(-c2ccccc2)c1-c1ccc(S(N)(=O)=O)cc1 [Valdecoxib] | 1.01
COc1ccc(CCN(C)CCCC(C#N)(c2ccc(OC)c(OC)c2)C(C)C)cc1OC (stereo not given) [Verapamil hydrochloride] | 0.899
CCCc1cc(=O)[nH]c(=S)[nH]1 [Propylthiouracil] | 1.07
C[N+]1(CCCCC[N+]2(C)CCCC2)CCCC1 [Pentolinium bitartrate] | 0.936
O=C(Nc1ccccc1)c1cc([N+](=O)[O-])ccc1Cl | 1.03 and 1.05
C=C1C(=O)O[C@@H]2/C=C(\C)CC/C=C(\C)CC[C@@H]12 [Costunolide] | 1.05
c1ccc2c(Cc3c[nH]c4ccccc34)c[nH]c2c1 [Diindolylmethane] | 1.04
Cc1sc(N)c(C(=O)c2cccc(C(F)(F)F)c2)c1C | 0.996
COc1ccc(OC)c2c(=S)c3ccccc3[nH]c12 | 1.11
COc1ccc(-n2[nH]c3c4c(ncc3c2=O)CCCCC4)cc1 | 1.01
CO/N=C(\C(=O)N[C@@H]1C(=O)N2C(C(=O)OCOC(=O)C(C)(C)C)=C(/C=C\c3scnc3C)CS[C@H]12)c1csc(N)n1 [Cefditoren pivoxil] | 1.08
CC(C)c1ccc(NC(=O)Cn2cnc3c2c(=O)n(C)c(=O)n3C)cc1 | 1.1
Cc1c(C2CCN(CCc3ccccc3)CC2)noc1-c1ccc(Cl)cc1 [L-741,742 hydrochloride] | 1.08
O=C(O)c1ccc(-c2ccc3cc(O)c(C45CC6CC(CC(C6)C4)C5)cc3c2)cc1 | 1.01
C[C@]12CC[C@@H]3c4ccc(O)cc4CC[C@H]3[C@@H]1CC[C@@H]2O [17b-Estradiol] | 1.06
C[C@]12CC[C@@H]3c4ccc(O)cc4CC[C@H]3[C@@H]1CC[C@@H]2O [Estradiol] | 1.1
C[C@]12CC[C@@H]3c4ccc(O)cc4CC[C@H]3[C@@H]1CC[C@@H]2O [Estradiol-17 beta] | 0.927
Cc1c(NC(=O)N2CCOCC2)ccc2c1c1ccccc1n2C(C)C | 0.998
CCCN(CCC)S(=O)(=O)c1ccc(C(=O)O)cc1 [Probenecid] | 0.941
CC(=O)[C@H]1CC[C@H]2[C@@H]3CCC4=CC(=O)CC[C@]4(C)[C@H]3CC[C@]12C [Progesterone] | 1.03 ± 0.037
CC(=O)[C@H]1CC[C@H]2[C@@H]3CCC4=CC(=O)CC[C@]4(C)[C@H]3CC[C@]12C [Progesterone (Prometrium)] | 0.854
OC(CN1CCC(Cc2ccc(F)cc2)CC1)c1ccc(Cl)cc1 (stereo not given) [Eliprodil] | 1.04
NC(Cc1cc(I)c(Oc2cc(I)c(O)c(I)c2)c(I)c1)C(=O)O (stereo not given) [Thyroxine (L)] | 0.963
CN(C)CC/C=C1/c2ccccc2Sc2ccc(Cl)cc21 [Chlorprothixene hydrochloride] | 1.15

Structure (SMILES) | surface PD-L1 immunofluorescence intensity
COc1ccc2[nH]c([S+]([O-])Cc3ncc(C)c(OC)c3C)nc2n1 (stereo not given) [Tenatoprazole] | 1.02
CN(C)CCOC(c1ccccc1)c1ccccc1 [Diphenhydramine hydrochloride] | 0.866
Nc1cccc2c1C(=O)N(C1CCC(=O)NC1=O)C2=O (stereo not given) [Pomalidomide] | 1.01
Oc1ccc(OC2CCCCO2)cc1 (stereo not given) [Deoxyarbutin] | 1.11
O=C(O)C(O)Cc1ccc(O)c(O)c1 (stereo not given) [Sodium Danshensu] | 0.896
N=C(N)NC(=O)Cc1c(Cl)cccc1Cl [Guanfacine hydrochloride] | 1.05 ± 0.069
O=C1Nc2ccccc2/C1=C1/Nc2ccccc2C1=O [Indirubin] | 1.04
Nc1ncnc2c1ncn2[C@@H]1O[C@H](CO)[C@@H](O)[C@H]1O [Adenosine (Adenocard)] | 0.975
Clc1ccc(CSC(Cn2ccnc2)c2ccc(Cl)cc2Cl)cc1 (stereo not given) [Sulconazole nitrate] | 1.02
COc1ccccc1N1CCN(CCN(C(=O)C2CCCCC2)c2ccccn2)CC1 | 0.971
CN1C(=O)CC(c2ccccc2)C1=O (stereo not given) [Phensuximide] | 1.05
O=C(NCCCN1CCC2(CC1)OCc1ccccc12)[C@H]1CCCN1Cc1ccccc1 | 1.1
Fc1ccc(Cl)cc1-c1nc(Nc2ccncc2)c2nccnc2n1 | 0.987
CN(C)CCN(Cc1ccccc1)c1ccccn1 [Tripelennamine hydrochloride] | 1.02
CC1CNc2c(cccc2S(=O)(=O)N[C@@H](CCCNC(=N)N)C(=O)N2CC[C@@H](C)C[C@@H]2C(=O)O)C1 (stereo not given in full) [Argatroban] | 1.03 ± 0.068
O=C(/C=C/c1ccccc1)NC(NC(=S)Nc1cccc2cccnc12)C(Cl)(Cl)Cl (stereo not given) [Salubrinal] | 1.01
CCCOC(=O)c1cc(O)c(O)c(O)c1 [N-Propyl gallate] | 0.971
CCCSc1nc(N[C@@H]2C[C@H]2c2ccc(F)c(F)c2)c2nnn([C@@H]3C[C@H](OCCO)[C@@H](O)[C@H]3O)c2n1 [Ticagrelor] | 1.1
C=C1C[C@@]2(O)O[C@@]3(C[C@H]2C(C)C)[C@@H](C)CC[C@@H]13 [Curcumol] | 1.12
O=C(O)COCCN1CCN(C(c2ccccc2)c2ccc(Cl)cc2)CC1 (stereo not given) [Cetirizine dihydrochloride] | 1.1
N[C@@H]1CONC1=O [D-cycloserine] | 0.991
C#C[C@]1(OC(C)=O)CC[C@H]2[C@@H]3CCC4=CC(=NO)CC[C@@H]4[C@H]3CC[C@@]21CC (mixture of isomers) [Norgestimate] | 0.925
CC(=O)O[C@]1(C(C)=O)CC[C@H]2[C@@H]3C=C(Cl)C4=CC(=O)[C@@H]5C[C@@H]5[C@]4(C)[C@H]3CC[C@@]21C [Cyproterone acetate] | 1.08 ± 0.12
Clc1ccc(CO/N=C(\Cn2ccnc2)c2ccc(Cl)cc2Cl)c(Cl)c1 [Oxiconazole Nitrate] | 0.957
COc1cccc(CCc2ccccc2OCC[C@@H]2C[C@@H](O)CN2C)c1 | 0.956
COc1cc2nc(N(C)CCCNC(=O)C3CCCO3)nc(N)c2cc1OC (stereo not given) [Alfuzosin hydrochloride] | 1.08
Clc1ccc(Cn2c(CN3CCCC3)nc3ccccc32)cc1 [Clemizole hydrochloride] | 1

Structure (SMILES) | surface PD-L1 immunofluorescence intensity
O=C(O)/C=C/c1ccc(O)c(O)c1 [Caffeic acid] | 0.987
CN1C[C@@H]2C[C@H]1CN2c1cc2c(cc1F)c(=O)c(C(=O)O)cn2C1CC1 [Danofloxacin Mesylate] | 0.943
N[C@@H](Cc1c[nH]c2ccc(O)cc12)C(=O)O [5-hydroxytryptophan (5-HTP)] | 1.07
CC(=O)Nc1nc2c(Oc3cc(-c4ccc(C(F)(F)F)cc4)ncn3)cccc2s1 | 1.08
O=C(O)Cc1nn(Cc2ccc(Br)cc2F)c(=O)c2ccccc12 [Statil] | 0.869
NC(N)=Nc1ccc(Cl)cc1 [4-Chlorophenylguanidine hydrochloride] | 0.994
N=C(N)Nc1ccc(C(=O)Oc2ccc3cc(C(=N)N)ccc3c2)cc1 [Nafamostat mesylate] | 1.08
C[C@]12CC[C@H](O)CC1=CC[C@@H]1[C@@H]2CC[C@]2(C)C(n3cnc4ccccc43)=CC[C@@H]12 [Galeterone (TOK-001)] | 1.06
CC1=C(/C=C/C(C)=C/C=C/C(C)=C/C(=O)O)C(C)(C)CCC1 [Retinoic acid, all trans] | 0.99
CC1=C(/C=C/C(C)=C/C=C/C(C)=C/C(=O)O)C(C)(C)CCC1 [Retinoic acid] | 1.03 ± 0.085
CC1=C(/C=C/C(C)=C/C=C/C(C)=C/C(=O)O)C(C)(C)CCC1 [Retinoic Acid] | 1.04
NC(=O)c1cc[n+](CC2=C(C(=O)[O-])N3C(=O)[C@@H](NC(=O)[C@@H](c4ccccc4)S(=O)(=O)O)[C@H]3SC2)cc1 [Cefsulodin sodium salt] | 1.03
CCCCCC#CCC#CCC#CCC#CCCCC(=O)O [5,8,11,14-Eicosatetraynoic acid] | 1.06
CC(=O)Oc1ccccc1C(=O)O [Acetylsalicylic acid] | 1.08
CNS(=O)(=O)CCc1ccc2[nH]cc(C3CCN(C)CC3)c2c1 [Naratriptan HCl] | 0.911
COc1ccc2ccc(=O)oc2c1CC=C(C)C [Osthole (Osthol)] | 1.13
N=C(N)NS(=O)(=O)c1ccc(N)cc1 [Sulfaguanidine] | 0.867
CC1(C)[C@H](C(=O)O)N2C(=O)C[C@H]2S1(=O)=O [Sulbactam] | 0.971
Cc1ncc(CO)c(CO)c1O [Pyridoxine hydrochloride] | 0.899
CN1CCc2cc(Cl)c(O)cc2[C@@H](c2ccccc2)C1 | 0.923
C#Cc1cccc(Nc2ncnc3cc4c(cc23)OCCOCCOCCO4)c1 [Icotinib] | 1.01 ± 0.06
CCc1c(C)[nH]c2c1C(=O)C(CN1CCOCC1)CC2 (stereo not given) [Molindone hydrochloride] | 0.973
NC(=O)CNCCC(c1ccccc1)c1ccccc1 [N20C hydrochloride] | 1.02
c1ccc(-c2[nH]ncc2-c2ccnc3ccccc23)nc1 | 0.987
N[C@@H](CCC(=O)N[C@@H](CS)C(=O)NCC(=O)O)C(=O)O [Glutathione] | 0.976
CCC1(c2ccccc2)NC(=O)N(C)C1=O (stereo not given) [Mephenytoin] | 1.17
